Measured data: PubChem BioAssay AID504804 (Drosophila RNAi Screening Center, 2011)

Assay: 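Knock-downs shielding fly cells from apoptosis caused by DNA damage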 (primary screen)
System: Drosophila Kc cells
Reagents: long dsRNA against Drosophila genes, 0.5 µg dsRNA per well
Time to read-out: 96 h (48 h knock-down, then 48 h drug)
Challenge: doxorubicin 5 µg/ml for 48 h, added 48 h after dsRNA
Measured: 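Luminescent ATP counts per replicate, not normalised, reflecting viable cells after 48 h dsRNA knock-down followed by 48 h of 5 µg/ml doxorubicin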
Reading the numbers: raw ATP luminescence: higher = more viable cells, protection from doxorubicin
Call rule: 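z-score of 2 or more over plate mean in both duplicates, retained only when retests and separate dsRNAs confirm the protection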
In all, the deposit lists about 19,000 reagents; this is a random part of those with a known target gene and a result. Of all reagents, 47 (0.25%) got an active call. 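Signals are raw, not normalised; exact z-scores behind calls not deposited; actives needed confirmation, so some wells reaching 2 SD are inactive.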 Names joined by + are all predicted targets of the reagent.

gene knocked down | DRSC id | raw ATP luminescence, replicate 1 | raw ATP luminescence, replicate 2 | activity call
CG42380 + CG42379 + PIG-M + 1 more | DRSC03884 | 67673 | 50360 | inactive
CG42380 + CG42379 + PIG-M + 1 more | DRSC04580 | 77863 | 89297 | inactive
CG14369 | DRSC14831 | 76000 | 74580 | inactive
CG3277 | DRSC00588 | 31437 | 28300 | inactive
CG13578 | DRSC04214 | 44680 | 71103 | inactive
trbl (tribbles) | DRSC11901 | 70040 | 58183 | inactive
CG10650 | DRSC02085 | 90557 | 66743 | inactive
amx (almondex) | DRSC18736 | 2.93e5 | 3.22e5 | inactive
CG9356 | DRSC16476 | 65183 | 23843 | inactive
CG11170 | DRSC04090 | 81273 | 62197 | inactive
CG42527 (retired record) + Hr4 | DRSC18495 | 60130 | 48450 | inactive
mbo (members only) | DRSC16123 | 46320 | 20760 | inactive
CG42780 | DRSC17514 | 2.90e5 | 1.88e5 | inactive
CG11035 | DRSC14287 | 67363 | 23167 | inactive
Fa2h (Fatty acid 2-hydroxylase) | DRSC06608 | 49223 | 68000 | inactive
Fa2h (Fatty acid 2-hydroxylase) | DRSC06609 | 50383 | 66607 | inactive
CG10307 | DRSC04057 | 79990 | 66820 | inactive
Task6 (TWIK-related acid-sensitive K[+] channel 6) | DRSC16530 | 82140 | 79660 | inactive
E23 (Early gene at 23) | DRSC00425 | 14957 | 10980 | inactive
E23 (Early gene at 23) | DRSC00593 | 36170 | 34040 | inactive
Gr58a (Gustatory receptor 58a) | DRSC03910 | 61380 | 63837 | inactive
CG17601 | DRSC20639 | 3.55e5 | 3.28e5 | inactive
PsGEF (Protostome-specific GEF) | DRSC18596 | 38150 | 44020 | inactive
CG31676 | DRSC02387 | 60327 | 65577 | inactive
CG15498 | DRSC15040 | 38910 | 38150 | inactive
LTV1 (LTV1 ribosome biogenesis factor) | DRSC05951 | 61717 | 47837 | inactive
CG30281 | DRSC04528 | 78680 | 78367 | inactive
CG12828 | DRSC06177 | 57690 | 77723 | inactive
Sik2 (Salt-inducible kinase 2) | DRSC18522 | 54130 | 55840 | inactive
Stoml2 (Stomatin like 2) | DRSC04326 | 94967 | 81300 | inactive
Cyp9c1 (Cytochrome P450 9c1) | DRSC04607 | 78557 | 67120 | inactive
Sgs4 (Salivary gland secretion 4) | DRSC18715 | 49600 | 77190 | inactive
CG32199 | DRSC09990 | 60333 | 52333 | inactive
CG42591 | DRSC08905 | 1.26e5 | 1.20e5 | inactive
p (pink) | DRSC16560 | 62247 | 65597 | inactive
CG42588 | DRSC09820 | 75870 | 85600 | inactive
Ttc1 (Tetratricopeptide repeat domain 1) | DRSC15016 | 84530 | 62940 | inactive
CG18428 | DRSC15326 | 49630 | 59030 | inactive
Gcat (Glycine C-acetyltransferase) | DRSC09719 | 64850 | 63930 | inactive
CG13047 | DRSC09928 | 45157 | 27503 | inactive
Cyp313b1 (Cytochrome P450 313b1) | DRSC16629 | 63547 | 61620 | inactive
bc10 | DRSC11326 | 71153 | 80683 | inactive
Osi4 (Osiris 4) | DRSC12134 | 53290 | 55723 | inactive
Ran | DRSC20364 | 3.95e5 | 4.09e5 | inactive
MCU (Mitochondrial calcium uniporter) | DRSC10339 | 84530 | 82223 | inactive
CG12662 | DRSC17865 | 41140 | 43590 | inactive
eIF3i (eukaryotic translation initiation factor 3 subunit i) | DRSC03464 | 74930 | 50577 | inactive
CG12206 | DRSC17828 | 45590 | 41440 | inactive
CG14650 | DRSC12236 | 22683 | 31897 | inactive
Ubc87F (Ubiquitin conjugating enzyme 87F) | DRSC16513 | 65100 | 65500 | inactive
CG10226 | DRSC09715 | 34717 | 42793 | inactive
Amun | DRSC19847 | 3.21e5 | 2.96e5 | inactive
azot (ahuizotl) | DRSC06051 | 40213 | 68747 | inactive
Epac (Exchange protein directly activated by cAMP) | DRSC04969 | 1.71e5 | 2.02e5 | inactive
Epac (Exchange protein directly activated by cAMP) | DRSC04996 | 73077 | 51290 | inactive
Epac (Exchange protein directly activated by cAMP) | DRSC04997 | 32593 | 67680 | inactive
form3 (formin 3) | DRSC10195 | 67093 | 72597 | inactive
form3 (formin 3) | DRSC10297 | 49743 | 44340 | inactive
form3 (formin 3) | DRSC11024 | 53477 | 70363 | inactive
CG3222 | DRSC10355 | 83647 | 69127 | inactive
CG32793 | DRSC18145 | 57270 | 58970 | inactive
CG32793 | DRSC18194 | 47110 | 53020 | inactive
Ugt37D1 (UDP-glycosyltransferase family 37 member D1) | DRSC02645 | 69507 | 67040 | inactive
eEF5 (eukaryotic translation elongation factor 5) | DRSC04681 | 32023 | 48423 | inactive
Sos (Son of sevenless) | DRSC03439 | 17373 | 84783 | inactive
CG12395 | DRSC19453 | 3.79e5 | 3.09e5 | inactive
CG10341 | DRSC02040 | 86920 | 59973 | inactive
RpL13A (Ribosomal protein L13A) | DRSC12265 | 43887 | 22367 | inactive
SCOT (Succinyl-CoA:3-ketoacid CoA transferase) | DRSC08186 | 58007 | 60747 | inactive
Nup37 (Nucleoporin 37kD) | DRSC14419 | 64260 | 57150 | inactive
Rab30 | DRSC03137 | 32600 | 37937 | inactive
CG30114 | DRSC05707 | 1.54e5 | 78307 | inactive
CG8738 | DRSC07256 | 41107 | 79610 | inactive
gw (gawky) | DRSC17160 | 19480 | 25340 | inactive
CG17568 | DRSC02628 | 76247 | 78983 | inactive
witty (without maturity) | DRSC02378 | 41997 | 80503 | inactive
CG13386 | DRSC02260 | 44833 | 72027 | inactive
CG32755 | DRSC18397 | 49730 | 46760 | inactive
PGRP-LC (Peptidoglycan recognition protein LC) | DRSC08980 | 1.82e5 | 1.61e5 | inactive
PGRP-LC (Peptidoglycan recognition protein LC) | DRSC10416 | 71913 | 74400 | inactive
PGRP-LC (Peptidoglycan recognition protein LC) | DRSC10417 | 75737 | 58507 | inactive
Helz (Helicase with zinc finger) | DRSC11072 | 22620 | 21103 | inactive
kat-60L1 (katanin p60-like 1) | DRSC12184 | 54247 | 30720 | inactive
Ugt35B1 (UDP-glycosyltransferase family 35 member B1) | DRSC16893 | 51027 | 23970 | inactive
CG10031 | DRSC00286 | 28330 | 23510 | inactive
CG13377 | DRSC18622 | 65690 | 55120 | inactive
CG7737 | DRSC07033 | 89337 | 69610 | inactive
zyd (zydeco) | DRSC20716 | 3.05e5 | 2.93e5 | inactive
Alg14 (ALG14, UDP-N-acetylglucosaminyltransferase subunit) | DRSC19983 | 3.36e5 | 3.13e5 | inactive
CG14440 | DRSC17933 | 12390 | 16820 | inactive
Cpr72Eb (Cuticular protein 72Eb) | DRSC09870 | 54797 | 52080 | inactive
CG14323 | DRSC14802 | 1.06e5 | 87040 | inactive
CG7031 | DRSC16178 | 17110 | 16790 | inactive
Takl2 (Tak1-like 2) | DRSC15650 | 57070 | 59060 | inactive
Gr97a (Gustatory receptor 97a) | DRSC13802 | 2.29e5 | 2.10e5 | inactive
CG13369 | DRSC18481 | 41770 | 47350 | inactive
MsrA (Methionine sulfoxide reductase A) | DRSC11159 | 62983 | 51170 | inactive
CG13605 | DRSC14608 | 35570 | 41907 | inactive
m-cup (mann-cup) | DRSC14430 | 72310 | 77970 | inactive
Jhbp13 (Juvenile hormone binding protein 13) | DRSC02913 | 66030 | 81450 | inactive
Pgi (Phosphoglucose isomerase) | DRSC07507 | 61153 | 57063 | inactive
l(2)34Fd (lethal (2) 34Fd) | DRSC01911 | 1.05e5 | 82777 | inactive
Vml (Vitelline membrane-like) | DRSC17695 | 2.26e5 | 2.23e5 | inactive
Vml (Vitelline membrane-like) | DRSC18529 | 43840 | 56890 | inactive
alpha-Est8 (alpha-Esterase-8) | DRSC12620 | 58153 | 57123 | inactive
CG7724 | DRSC10905 | 20310 | 20260 | inactive
Tmep (Transmembrane endosomal protein) | DRSC08215 | 49303 | 64597 | inactive
